## Primary screen of a compound library

Amino acid sequences for entries named in this document (tags omitted). Residues count along the entry.
UniProt A4I591, 1-473: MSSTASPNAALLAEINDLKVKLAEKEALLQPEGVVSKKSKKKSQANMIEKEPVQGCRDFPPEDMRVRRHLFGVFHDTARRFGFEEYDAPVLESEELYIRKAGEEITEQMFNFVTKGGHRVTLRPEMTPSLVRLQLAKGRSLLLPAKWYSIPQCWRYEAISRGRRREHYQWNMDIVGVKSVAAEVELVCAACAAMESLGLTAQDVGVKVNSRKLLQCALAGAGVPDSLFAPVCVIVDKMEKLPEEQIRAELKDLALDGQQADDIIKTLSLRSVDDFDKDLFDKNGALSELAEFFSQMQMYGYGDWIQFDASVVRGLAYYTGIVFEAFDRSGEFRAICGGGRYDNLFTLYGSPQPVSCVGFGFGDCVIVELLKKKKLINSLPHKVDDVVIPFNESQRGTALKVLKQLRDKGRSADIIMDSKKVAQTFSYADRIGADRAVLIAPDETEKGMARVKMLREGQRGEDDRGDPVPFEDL
UniProt P9WNZ1, whole entry: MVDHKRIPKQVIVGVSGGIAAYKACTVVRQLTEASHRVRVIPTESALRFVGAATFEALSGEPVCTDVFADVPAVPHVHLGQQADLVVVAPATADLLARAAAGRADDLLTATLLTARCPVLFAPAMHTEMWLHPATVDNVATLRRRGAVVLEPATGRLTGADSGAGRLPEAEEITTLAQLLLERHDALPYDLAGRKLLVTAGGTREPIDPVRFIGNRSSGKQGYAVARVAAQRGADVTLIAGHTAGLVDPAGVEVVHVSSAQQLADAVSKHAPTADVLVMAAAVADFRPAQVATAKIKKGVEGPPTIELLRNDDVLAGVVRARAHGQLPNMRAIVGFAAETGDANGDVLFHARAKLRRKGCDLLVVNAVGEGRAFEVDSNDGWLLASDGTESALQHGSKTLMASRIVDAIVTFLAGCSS
UniProt Q8IDJ8, 1-583: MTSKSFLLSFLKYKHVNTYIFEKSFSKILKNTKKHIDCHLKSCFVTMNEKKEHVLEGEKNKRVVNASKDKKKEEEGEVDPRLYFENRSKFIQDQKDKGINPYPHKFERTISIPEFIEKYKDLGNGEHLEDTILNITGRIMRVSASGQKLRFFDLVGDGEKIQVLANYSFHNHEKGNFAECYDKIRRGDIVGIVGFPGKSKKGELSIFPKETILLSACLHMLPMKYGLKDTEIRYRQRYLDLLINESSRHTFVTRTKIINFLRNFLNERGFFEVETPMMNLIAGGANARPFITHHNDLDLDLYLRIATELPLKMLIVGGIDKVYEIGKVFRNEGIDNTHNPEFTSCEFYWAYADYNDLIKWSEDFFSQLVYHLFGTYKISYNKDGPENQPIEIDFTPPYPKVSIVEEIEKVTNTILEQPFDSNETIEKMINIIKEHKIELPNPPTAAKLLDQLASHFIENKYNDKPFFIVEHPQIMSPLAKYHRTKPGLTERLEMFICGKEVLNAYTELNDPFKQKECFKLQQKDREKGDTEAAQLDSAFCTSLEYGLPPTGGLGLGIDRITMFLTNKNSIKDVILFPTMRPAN
UniProt P9WFT3, whole entry: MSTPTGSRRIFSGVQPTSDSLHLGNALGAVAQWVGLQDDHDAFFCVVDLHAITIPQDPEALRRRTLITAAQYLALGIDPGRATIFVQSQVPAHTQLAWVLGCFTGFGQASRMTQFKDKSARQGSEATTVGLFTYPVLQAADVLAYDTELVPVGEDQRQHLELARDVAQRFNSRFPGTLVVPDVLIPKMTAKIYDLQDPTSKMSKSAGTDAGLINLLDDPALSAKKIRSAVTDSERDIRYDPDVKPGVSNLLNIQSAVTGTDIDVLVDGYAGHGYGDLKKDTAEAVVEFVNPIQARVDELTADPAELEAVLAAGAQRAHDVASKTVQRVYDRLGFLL

A: 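Enzyme assay of histidyl-tRNA synthetase; the read-out is not stated. Target: Histidine-tRNA ligase, Leishmania infantum (UniProt A4I591). Compounds at 30 µM. Higher reads as stronger inhibition (inferred: compounds with an IC50 in retests scored well above the rest). The assay is labelled LdHisRS but filed under L. infantum. Size under these conditions: about 69,000 compounds, about 410 of them at 50% or above in at least one test.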
B: 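Enzyme assay of CoaBC with a phosphate dye (Biomol Green) read at 650 nm. Target: Coenzyme A biosynthesis protein CoaBC, Mycobacterium tuberculosis (UniProt P9WNZ1). Compounds at 30 µM. Higher reads as stronger inhibition, judged from the few compounds that gave an IC50. Most strong results did not repeat in a second test. Size under these conditions: about 67,000 compounds, about 40 of them at 50% or above in at least one test.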
C: 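Enzyme assay of the cytosolic lysyl-tRNA synthetase in 384-well plates, read by luminescence. Target: Lysine-tRNA ligase, Plasmodium falciparum 3D7 (UniProt Q8IDJ8). Tested at 30 µM. Direction is inferred from only a few compounds that gave an IC50; most scored high, so higher reads as stronger inhibition. About 69,000 compounds were tested under these conditions; 0.071% (about 49) showed 50% or more at least once.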
D: 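Tryptophan-tRNA ligase, Mycobacterium tuberculosis (UniProt P9WFT3). Enzyme assay of tryptophanyl-tRNA synthetase; the read-out is not stated. Tested at 10 µM. Higher most likely means stronger inhibition; the record gives no direction and few retests gave an IC50. Size under these conditions: about 65,000 compounds, about 64 of them at 50% or above in at least one test.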

Results are given as percent effect. How 0% and 100% were set is not recorded. Most values in the screen are low, and negative values occur. Compounds were drawn at random from those tested, without regard to their results. Two or more numbers in one place are separate tests of the same structure; such repeats can differ widely. A dash means the value is not listed here; it may have been measured.

structure | A | B | C | D
NC(=O)C1CCN(Cn2nc(-c3ccc(F)cc3)oc2=O)CC1 | -4.717 | 0 | -5.187 | -1.574
O=C1[C@@H]2CN(Cc3ccccn3)C[C@H]2CCN1c1cncnc1 | 18 | 3.941 | 6.713 | -3.516
COC(=O)c1ccc(N2CCN(CCS(C)(=O)=O)C(C)C2)cc1 (centres unmarked) | 2.679 | 4.215 | 1.871 | -2.568
Cc1ccc(N2CCC3(CCN(Cc4nccs4)CC3)CC2)nn1 | -15.79 | 9.165 | 5.499 | -3.968
COCC1CN(S(=O)(=O)c2ccccc2)Cc2ncnn2C1 (centres unmarked) | 16 | 3.448 | 6.543 | -7.114
CCOC(=O)c1nc(CN2CCC(NC(=O)C(C)C)CC2)cs1 | 21.13 | -26.09 | 3.307 | 4.423
CC(C)C(=O)N1CCN(c2ncnc3cc4c(cc23)OCCO4)CC1 | 20.69 | -2.54 | 4.608 | 1.166
COC1CN(C(=O)NC2CCCC2)CCC(=O)N(C)c2ccccc21 (centres unmarked) | 10.2 | -3.632 | 3.626 | -
O=C(NCCNc1ncccn1)Nc1cc(C(F)(F)F)c[nH]c1=O | 18.46 | 1.012 | 1.968 | -4.568
O=C(CCSc1ccc2c(c1)OCCO2)NCC1CCS(=O)(=O)C1 (centres unmarked) | 12.9 | -0.8631 | 1.358 | 3.003
CC(C)OCc1cccc(NC(=O)N2CCCC(CCC(N)=O)C2)c1 (centres unmarked) | 16.67 | 4.126 | 10.36 | -3.838
CO[C@H]1CC[C@H]2[C@H]1OCCN2C(=O)CCOc1ccccc1 | 6.364 | 1.481 | 1.269 | -
Cc1ccsc1CN(C)c1cc(N2CCOCC2)ncn1 | 8.602 | 2.675 | -0.3356 | 2.314
CCC(O)CNC(=O)c1cc(COc2ccc(OC)cc2Cl)[nH]n1 (centres unmarked) | 13.95 | -0.1229 | -0.5017 | 1.888
CC(C)c1noc(CNc2ccccc2CC(=O)N(C)C)n1 | 20 | 13.41 | 2.698 | 2.407
CCCC(=O)Nc1sc(C(=O)OCC)c(C)c1C#N | 10.68 | 4.436 | -2.354 | -3.638
CCOC(=O)CC(C)NC(=O)c1cn(Cc2ccccc2F)nn1 (centres unmarked) | 9.167 | - | 0.7454 | -3.509
Cc1nc(C)n(CC2CCCN2CCOc2ccccc2C#N)n1 (centres unmarked) | 11.86 | 1.575 | 0.6314 | -1.146
Cc1nn(C)c(N2CCOCC2)c1CNCc1ccccc1CO | 18.58 | 3.133 | -0.3251 | -3.887
Cc1cccc(CN2CC[C@H]3OCC[C@@]3(C(=O)N3CCOCC3)C2)n1 | 7.547 | 6.098 | 5.543 | -
Cc1cccc(-c2nc(C)nn2CC(=O)NCC(C)C)c1 | 13.16 | -0.8149 | 0.8681 | -2.26
CO[C@@H]1CCN(c2ncc(F)cn2)[C@@H]2CN(CC3CC3)C[C@@H]21 | 21.05 | 5.285 | 0.64 | -3.312
CC(C)NC(=O)CNC(=O)OC(C)(C)C | 9.167 | - | 1.441 | -3.922
CNS(=O)(=O)CCCN1CCN(C(C#N)c2ccccc2)CC1 (centres unmarked) | 6.522 | -2.066 | -1.313 | -3.055
Cc1nnc(CN(Cc2ccc3c(c2)OCO3)C2CCCCC2)o1 | 10.71 | 21.49 and 13.92 | 4.351 | -7.592
CC(C)(C)CN1CCC(c2nnc(Cn3ccnc3)n2C2CC2)CC1 | 15 | 2.355 | 0.6792 | -4.16
CCC(C)[C@H](NC(=O)c1cc(F)ccc1-n1cnnn1)C(=O)OC (some centres unmarked) | 9.783 | 3.027 | 2.137 | -0.4666
O=S(=O)(CCNCCn1cccn1)c1ccccc1 | -1.205 | 3.165 | -4.06 | -5.574
Cc1c(CN(C)c2cc(C3CCCNC3)ncn2)[nH]c2ccccc12 (centres unmarked) | 15.58 | 4.087 | 4.403 | -0.9889
Cn1cnnc1C1CCN(C(=O)Cc2ccc3c(c2)OCCO3)CC1 | 4.959 | 8.855 | 12.65 | -3.173
CN(Cc1cccc2cnccc12)C(=O)CCc1n[nH]c2c1CCCC2 | 6.993 | 6.914 | 1.979 | -1.723
Cc1ccccc1OCCC(=O)N1CCc2nc(C)n(C)c(=O)c2CC1 | 12.12 | -10.69 | 3.506 | -1.615
Cc1cc2nc(C(C)C)cc(N3CCSCC3)n2n1 | 18.48 | 0.8475 | 4.045 | -1.711
COc1cc(CCC(=O)NC(C)(C)C)ccc1OCC(F)(F)F | 13.16 | 2.216 | -0.3175 | -5.245
CN(CCNC(=O)c1ccnc(-n2ccnc2)c1)C1CC1 | 14.16 | -0.8037 | 2.587 | -3.728
CCOCCCn1c(NC(=O)c2ccnc(C)n2)nc2ccccc21 | 3.846 | 0.2389 | -2.033 | 24.8
Cc1ccc(C(=O)N2CCN(C)C3(CCC(=O)N(C)CC3)C2)c(F)c1 (centres unmarked) | -4.196 | 2.469 | 3.819 | -0.6265
COCc1cc(N2C[C@@H](C)[C@](O)(C3CC3)C2)ncn1 | 11.48 | 1.023 | 5.944 | -3.307
CCN(CC)CC1CCN(Cc2ncc(C(C)(C)C)o2)CC1 | 8.108 | -7.393 | 4.727 | 3.609
COc1ccc(OC)c(C(O)CN2CCC(N3CCC(C)CC3)CC2)c1 (centres unmarked) | -13.68 | 8.029 | -0.1459 | 3.072
CCCn1cc(CN2CCCC2c2cccc(-n3ccnc3)n2)cn1 (centres unmarked) | 13.68 | 9.976 | 2.588 | -5.275

Once more, the final 3:

structure	A	B	C	D
CCN(CC)CC1CCN(Cc2ncc(C(C)(C)C)o2)CC1	8.108	-7.393	4.727	3.609
COc1ccc(OC)c(C(O)CN2CCC(N3CCC(C)CC3)CC2)c1 (centres unmarked)	-13.68	8.029	-0.1459	3.072
CCCn1cc(CN2CCCC2c2cccc(-n3ccnc3)n2)cn1 (centres unmarked)	13.68	9.976	2.588	-5.275

From ChEMBL document CHEMBL3988442, “University of Dundee, Small-Polar-MMV Screening Library” (2021).